# “And” between values parts separate entries of the source, which are not always exact repeats. Identical values can stand only once. Among all 360,000 compounds or so, about 610 (0.17%) were called active. Inconclusive results, whose numbers are uncertain, are shown with a selection of clear calls. Cut-off read from the data, not from the text of the source: active = inhibition above about 30%; inconclusive = no clear call, values can overlap the other calls; inactive = below that.
# Test system: Botulinum neurotoxin type A light chain protease (Clostridium botulinum A str. ATCC 3502)
# Experiment: blockers of BoNT/A LC substrate cleavage – biochemical, flow cytometry, MLPCN library, primary screen (AID 588499); note: plate controls were buffer without enzyme for full effect and enzyme alone for no effect
# Details: multiplex microsphere protease substrate cleavage, at 10 µM, stronger effect = higher value
row,SMILES,inhibition
1,CN(C)CCN1C(=O)C(O)=C(C(=O)c2cc3ccccc3o2)C1c1cccc(Br)c1 (configuration not stated),inconclusive: -7.9%
2,Cc1ccc2cc3cc(C(=O)NCCCN4CCCCCC4)oc3nc2c1,inactive: 3.2%
3,CC1(C)NC(=O)N(CC(O)CN(c2ccccc2)S(=O)(=O)c2ccc([N+](=O)[O-])cc2)C1=O (configuration not stated),inactive: -4.6%
4,NS(=O)(=O)c1ccc(NNC(=O)c2cccs2)cc1,inconclusive: -4.3%
5,COc1ccc(-c2nnc(CSc3nnc(-c4ccncc4)n3C3CCCCC3)o2)cc1OC,inconclusive: 1.4%
6,O=C(N/N=C/c1cccnc1)c1cccc(N2CCCC2=O)c1,inconclusive: -5.2%
7,CC1(C)CC(N=C2C([N+](=O)[O-])=CC=C3C2=NC2(CCCCC2)N3O)CC(C)(C)N1,inconclusive: 12.6%
8,Cn1c(COc2ccccc2)nnc1SCC(=O)Nc1ccc(N2CCOCC2)c(Cl)c1,inconclusive: -4.2%
9,COc1ccc(NC(=O)Nc2ccc(F)cc2F)c(C)c1,inconclusive: 1.8%
10,CCc1ccc(CNCCc2c[nH]c3ccccc23)cc1,inconclusive: 7.6%
11,CCOC(=O)C1CCN(c2ncnc3c2cnn3-c2ccc(OC)cc2)CC1,inconclusive: -1.4%
12,Cc1cc(C)c(C#N)c(SCCN2CCOCC2)n1,inconclusive: -8.8%
13,COc1ccc(-c2c[n+]3c4n2CCCCC4=C(c2ccc(Br)cc2)C3)cc1,inconclusive: 10.6%
14,O=C(CCC1CCCCC1)NNC(=O)NC12CC3CC(CC(C3)C1)C2,inconclusive: -0.1%
15,COc1cc(NC(=O)c2cc(C)on2)cc(C(=O)Nc2cccc(C(F)(F)F)c2)c1,inactive: -0.8% and inactive: -0.2%
16,CCn1cc(C(=O)NCc2ccco2)c(=O)c2cc(S(=O)(=O)N3CCCCCC3)ccc21,inconclusive: 2.4%
17,CCOC(=O)N1CCC(Nc2ncnc3c2cnn3-c2ccccc2)CC1,inconclusive: -7.7%
18,N#Cc1ccc(C(=O)NN2C(=O)NC3(CCCCC3)C2=O)cc1,inconclusive: -30.2%
19,COCC(=O)N(Cc1cc2ccc(C)cc2[nH]c1=O)c1ccc(OC)cc1,inconclusive: 0.1%

row,SMILES,inhibition
1,Cc1cc2cc(CNC(=O)c3ccc(S(=O)(=O)N4CCCCC4)cc3)ccc2n1C,active: 79.9%
2,O=C(Cn1nnc(-c2ccc(CN3CCOCC3)cc2)n1)NC1CCCCC1,inconclusive: -1.7%
3,CC1CCN(S(=O)(=O)CCNC(=O)c2ccc(F)cc2)CC1,inconclusive: 12.2%
4,CCc1c(C(=O)Nc2ccncc2)csc1C,inactive: -0.7%
5,Cc1cc2c(c(=O)n1CCN(C)C)C(c1ccc(Cl)cc1)C(C#N)=C(N)O2 (configuration not stated),inconclusive: -3.7%
6,O=C(NC1CC2CCCC(C1)N2Cc1ccc(F)cc1)c1ccc(F)cc1 (configuration not stated),inconclusive: -3.3%
7,O=C(CNC(=O)c1ccccc1)NCC(=O)OCc1ccc(Cl)cc1,inconclusive: 1%
8,CCOc1ccc(C(=O)Nc2nnc(C)s2)cc1OCC,inconclusive: 2.3%
9,Cc1ccc(S(=O)(=O)C(C#N)c2nc3ccccc3nc2N2CCN(C)CC2)cc1C (configuration not stated),inconclusive: 0%
10,COc1cc2[nH]c(=S)n(NC(=O)CC(C)C)c(=O)c2cc1OC,inconclusive: -2.6%
11,Cc1onc(-c2ccccc2)c1CNC(=O)Nc1ccccc1,inconclusive: -0.3%
12,Cc1ccccc1-n1cnc2cc(NCc3cccs3)ccc21,inconclusive: -1.7%
13,CCOc1ccc2ccccc2c1/C=N/NC(=O)c1c(C)cc(C)[nH]c1=O,inactive: 0.8%
14,Nc1nc(Nc2ccccc2)nc(NCc2ccccc2)c1[N+](=O)[O-],inconclusive: -0.2%
15,COc1ccc(C(=O)Nc2nc3ccccc3c(=O)[nH]2)cc1,inactive: -0.6%
16,CSc1ccc(/C=C2\CCn3c2nc2cc(C(=O)O)ccc2c3=O)cc1,inactive: 0.4%
17,CNC[C@@H]1Oc2cc(Br)ccc2S(=O)(=O)N([C@@H](C)CO)C[C@H]1C,inactive: -0.4%
18,C/C(=N\O)C(=O)OC1CC(C)CCC1C(C)C (configuration not stated),inactive: -1.2%
19,CCCCNC(=O)CCCn1c(=S)[nH]c2cc3c(cc2c1=O)OCO3,inconclusive: 2.2%

row,SMILES,inhibition
1,N#Cc1c(N)n[nH]c1-c1cc2c([nH]1)CCCC2,inconclusive: -8%
2,CC1CCCCN1C(=O)COC(=O)c1cc([N+](=O)[O-])ccc1N1CCOCC1 (configuration not stated),inconclusive: -5.1%
3,Cc1ccc(OCCC(=O)OCC(=O)Nc2ccc(F)cc2)cc1,inconclusive: 2.1%
4,COc1ccc(CN2CCCCC2c2cccnc2)c(OC)c1C (configuration not stated),inconclusive: -2.4%
5,COc1ccc(CCC(=O)OCC(=O)N(CC(C)C)c2c(N)n(Cc3ccccc3)c(=O)[nH]c2=O)cc1,inactive: -20.1%
6,COC(=O)CSc1ccc2nnc(-c3ccc(F)cc3)n2n1,inconclusive: 4.8%
7,Cc1c(Cl)c(C(=O)NC2C3CC4CC(C3)CC2C4)nn1C (configuration not stated),inconclusive: 0.5%
8,Cc1cccnc1NC(=O)Nc1cccs1,inconclusive: -0.7%
9,COc1ccc(CSCC(=O)Nc2ccccc2)cc1[N+](=O)[O-],inactive: 1.8%
10,CCOC(=O)c1[nH]c2cc(OC)c(OC)cc2c1N,inactive: 1.6%
11,O=S(=O)(N/N=C1/CC(c2ccccc2)Oc2ccccc21)c1ccc(Br)cc1 (configuration not stated),inconclusive: -244%
12,CN1CCN(CCCNC(=O)c2ccc3c(c2)N(Cc2ccc(F)cc2)CCS3)CC1,inactive: 1.3%
13,O=C(Nc1ccccc1Cl)c1cc(C2CCCN(C(=O)c3ccccc3)C2)on1 (configuration not stated),inactive: 0.1%
14,Cc1cc2n(n1)C(c1cn(-c3ccccc3)nc1C)Nc1ccccc1-2 (configuration not stated),inconclusive: -1.2%
15,CC(C(=O)NC1C(=O)N2C(C(=O)O)=C(CSc3nnnn3C)CSC12)n1cc(Br)cn1 (configuration not stated),inactive: 0.1%
16,COc1ccc(-n2nc(C(=O)NCC(=O)Nc3cccc(Cl)c3)c3ccccc3c2=O)cc1OC,inactive: 5.9%
17,COc1ccc(OC)c(/C=N/NC(=O)c2ccc3nc[nH]c3c2)c1,inconclusive: -41.9%
18,CC(=NC1CCCCC1)C1=C(O)c2ccccc2C1=O,inconclusive: 3.6%
19,CCC(=O)NC(c1ccc([N+](=O)[O-])cc1)c1c(O)ccc2ccccc12 (configuration not stated),inconclusive: -1.9%

# Reference: PubChem BioAssay AID588499 (NMMLSC, 2011)
